# Results reported in PMC7244744, “Vesicular transport mediates the uptake of cytoplasmic proteins into mitochondria in Drosophila melanogaster” (Nature Communications, 2020).
# These are yes or no findings as the source states them, for the method shown. In cells and extracts the contact can be indirect. Binding calls can cover weak binding; strength is not graded here.
# T1: Dosmit (downsizing mitochondria), endogenous in S2 cells (Drosophila melanogaster (endogenous in S2 cells)) (UniProt Q9VAM6)
# T1 sequence: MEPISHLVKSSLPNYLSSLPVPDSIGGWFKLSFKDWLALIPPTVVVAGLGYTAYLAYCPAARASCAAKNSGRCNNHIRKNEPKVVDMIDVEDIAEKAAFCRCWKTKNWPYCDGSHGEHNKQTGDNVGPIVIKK
# Tests used:
# [1] = target: T1, Dosmit (downsizing mitochondria), endogenous in S2 cells (Drosophila melanogaster (endogenous in S2 cells)); assay: co-IP; lysate of S2 cells transfected with Rab32-HA or Hsc70-5-HA; immunoprecipitation of endogenous Dosmit with anti-Dosmit antibody and protein G Mag Sepharose beads, 4 °C; lysis buffer 50 mM Tris-HCl pH 8.0, 100 mM NaCl, 5 mM EDTA, 0.5% Nonidet P-40; blot for HA
# [2] = target: Rab32-HA (Drosophila melanogaster); assay: co-IP; lysate of S2 cells transfected with Rab32-HA or Hsc70-5-HA; immunoprecipitation with anti-HA antibody and protein G Mag Sepharose beads, 4 °C; lysis buffer 50 mM Tris-HCl pH 8.0, 100 mM NaCl, 5 mM EDTA, 0.5% Nonidet P-40; blot for endogenous Dosmit
binding [1],binding [2],Molecule
binds,,Rab32-HA (Drosophila melanogaster)
,binds,"Dosmit (downsizing mitochondria), endogenous in fly flight muscle (natural protein, UniProt Q9VAM6 1-133, looked up, endogenous protein of flight muscle; Seen as monomer and dimer (Dosmit*) bands on western blots; the dimer band is reduced to the monomer by DTT; also called Dosmit* (dimer form); CG1458; source: endogenous, flight-muscle tissue homogenate of wild-type flies (mitochondrial fraction)) MEPISHLVKSSLPNYLSSLPVPDSIGGWFKLSFKDWLALIPPTVVVAGLGYTAYLAYCPAARASCAAKNSGRCNNHIRKNEPKVVDMIDVEDIAEKAAFCRCWKTKNWPYCDGSHGEHNKQTGDNVGPIVIKK"
